The record followed here is ChEMBL document CHEMBL1152629, “Discovery and structure-activity relationship analysis of Staphylococcus aureus sortase A inhibitors” (Bioorg Med Chem, 2009).

Bounds are passed on as bounds.

The assay in a line: Inhibition of Staphylococcus aureus sortase A deltaN59 mutant assessed as Dap(Dnp) hydrolysis by FRET assay.

Regarding `CN1[C@@H]2CC[C@H]1C[C@@H](OC(=O)C(O)c1ccccc1)C2` (stereo partly specified) [HOMATROPINE], the IC50 was > 50 µM.

For orientation: IC50 means the concentration that inhibits the measured activity by half.
